Some of the results follow.
Target: OsWRKY34 (Oryza sativa, UniProt Q0JBA9 1-250)
Assay: protein-binding microarray (RPBM); PBS, 2% BSA, 51.3 ng/ul salmon testes DNA, 50 uM zinc acetate, 200 nM TF, 25 C, 1 h; high values mean tight binding
Details: protein: recombinant; tags: N-terminal polyhistidine and DsRed monomer fusion (pET32a); label: CyDye5-dUTP incorporated in the synthesized complementary strand; 3' TTTTT single-stranded linker to array surface; dsDNA, one strand shown
Summary of the method: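 For the binding signal, per-feature fluorescence intensity was read in arbitrary units on an Axon 4000B scanner. Before scanning, a 2% BSA-blocked custom Agilent array made double-stranded with Cy5-dUTP was washed after 1 h at 25 °C with 200 nM protein and 50 µM zinc acetate. The proteins were Ni–NTA-purified transcription factors with N-terminal polyhistidine and DsRed fusions, expressed in E. coli BL21-CodonPlus.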

Amino acid sequences for entries named in this document (tags omitted).
UniProt Q0JBA9, entry or part of it: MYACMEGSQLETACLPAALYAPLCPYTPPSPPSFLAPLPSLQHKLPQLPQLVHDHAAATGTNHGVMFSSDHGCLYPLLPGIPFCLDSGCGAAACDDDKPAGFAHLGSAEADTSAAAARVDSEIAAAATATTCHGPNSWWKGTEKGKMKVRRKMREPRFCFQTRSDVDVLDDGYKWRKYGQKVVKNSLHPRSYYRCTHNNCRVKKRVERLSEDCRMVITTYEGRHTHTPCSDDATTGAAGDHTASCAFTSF

Sequence | binding signal
TTGGTTGCTTGATCATCTTTTATACACTTTGTCCCATAATCGGAGTCACCTAGTGCAG | 10600 fluorescence intensity (a.u.)
AAGGCGGCGGTGGGAGGGGAGAGGGAGATGGGGAGGTTGCCGGAGTCACCTAGTGCAG | 10900 fluorescence intensity (a.u.)
TGTGCTCGCCACATCCGATCCATCGATTCGTGGAATTCTCCGGAGTCACCTAGTGCAG | 9530 fluorescence intensity (a.u.)
ACTGTATATCGATGGCCCACTCGGCCCGACCCGTCCCGGCCGGAGTCACCTAGTGCAG | 10600 fluorescence intensity (a.u.)
TGCTGTTAAAATGATCCATCCAATTGTCCTGTTCATTTTGCGGAGTCACCTAGTGCAG | 8170 fluorescence intensity (a.u.)
GTGGGTGGGATCCAGGAAGATTTTAAGCTGACTGCTGCGGCGGAGTCACCTAGTGCAG | 8510 fluorescence intensity (a.u.)
AACATCTACGAACTTGATCTTCCCATCAGAGACACCGACTCGGAGTCACCTAGTGCAG | 8100 fluorescence intensity (a.u.)
ACACCTACTAGTACTTTTGCAATACCAAAATTTTTGCCACCGGAGTCACCTAGTGCAG | 8600 fluorescence intensity (a.u.)
GCACTTGCCTCTTGCGTAGAGGTTGCTCTTGCTGGTTTTTCGGAGTCACCTAGTGCAG | 8280 fluorescence intensity (a.u.)
CCACCTACCCTACATGTATATACTATGCTACCTAGATTCACGGAGTCACCTAGTGCAG | 8700 fluorescence intensity (a.u.)
ACGTGGCCAGTGGCCATTCACGCATGCCCGATCGTTTTTCCGGAGTCACCTAGTGCAG | 10300 fluorescence intensity (a.u.)
ATACTACTCCTGTTTTTTTAACAACACTTTAATCTTTCTTCGGAGTCACCTAGTGCAG | 9170 fluorescence intensity (a.u.)
CTTTATTTGCATATCATTTCCATTTTTTACAAACTCTGTACGGAGTCACCTAGTGCAG | 8490 fluorescence intensity (a.u.)
GTCTCGACGTGCGTAAACTCATCTATGGTCTCTCGATTCACGGAGTCACCTAGTGCAG | 10000 fluorescence intensity (a.u.)
GTACCGACAAATTTGATTTCTGCAACTTCCGCATCTTTTCCGGAGTCACCTAGTGCAG | 10300 fluorescence intensity (a.u.)
CGTTGGGAGTTGGGAGGGATGGGTGGTGCATCAAGATTGACGGAGTCACCTAGTGCAG | 23500 fluorescence intensity (a.u.)
GCCCAGGTGTTCGTCCGTGTCCTCTTCTCCACTCCACACACGGAGTCACCTAGTGCAG | 12300 fluorescence intensity (a.u.)
CCTCCTCAACCGGATGCCGTTCTCTCTCCACCTCTCGTCGCGGAGTCACCTAGTGCAG | 9680 fluorescence intensity (a.u.)
TGTGTAGTGTCTGCATGTGTTGTTTGTGAATATTTTCTGCCGGAGTCACCTAGTGCAG | 8480 fluorescence intensity (a.u.)
TTAGTACCACTGCCACCCTGTCATCTCTGATAGGACTATACGGAGTCACCTAGTGCAG | 9610 fluorescence intensity (a.u.)
TGAATGGGTGATGCTGGGGAGCTGGGGATATTGGATATCTCGGAGTCACCTAGTGCAG | 15300 fluorescence intensity (a.u.)
CCGTTACATGACGTGGGCCCCACCCAGCCGCGCCAGCCCACGGAGTCACCTAGTGCAG | 8450 fluorescence intensity (a.u.)
AAACGACGCCGGCCGACTGTCTCCAGCTGATCGACCACTTCGGAGTCACCTAGTGCAG | 8170 fluorescence intensity (a.u.)
CTTTTTTTTTCCCTCTTCTCTCATCTCGTTTTGTCACGTGCGGAGTCACCTAGTGCAG | 8610 fluorescence intensity (a.u.)
TTCCTACGTGCTGCCGCGCGCCACATATTAATCAGCCGCACGGAGTCACCTAGTGCAG | 8120 fluorescence intensity (a.u.)
GTCGCGGTTGCCCCTCATCGTTGCTCACGGCTGCTTCGCACGGAGTCACCTAGTGCAG | 8440 fluorescence intensity (a.u.)
TATTTTTATTCTTATTCCCATTGCGCTTCTTCATTTTCTTCGGAGTCACCTAGTGCAG | 11600 fluorescence intensity (a.u.)

Sequence | binding signal
CTCTATCCATGGAATCTCATCCATCATCCATACATAACGACGGAGTCACCTAGTGCAG | 8210 fluorescence intensity (a.u.)
TATCGCACGTATCTACCAAATTCTTTGTACCGTGGGTACACGGAGTCACCTAGTGCAG | 9210 fluorescence intensity (a.u.)
GCCGCTTCTACTACTACTAACTAGCCTATTTCGTCTTCCTCGGAGTCACCTAGTGCAG | 8400 fluorescence intensity (a.u.)
GGGCATCCCTACTACGATTTCGTTATGTATTATTTGTTAACGGAGTCACCTAGTGCAG | 9810 fluorescence intensity (a.u.)
CTCAGCCGCCACGTCGCATAAAACCGGGGTCAAAACCACCCGGAGTCACCTAGTGCAG | 9130 fluorescence intensity (a.u.)
TCTTGGTACTGAACTACTTATTGCTGCTTTCATGTTGCCGCGGAGTCACCTAGTGCAG | 10000 fluorescence intensity (a.u.)
AGGGTCTATTCACTTTGCTACCATTTTCAACCTTACCAAACGGAGTCACCTAGTGCAG | 11300 fluorescence intensity (a.u.)
ACTTTTAGTTGGATTACTTCTTTTTGTGAACGTTTTGCTACGGAGTCACCTAGTGCAG | 10100 fluorescence intensity (a.u.)
GCCTAATGATTCCATCCGATCTGAGTGTGTTGCCTGTAGACGGAGTCACCTAGTGCAG | 9780 fluorescence intensity (a.u.)
GACCCTATAAATTCGGCCATGTTTAAACCATTTCACCACACGGAGTCACCTAGTGCAG | 12700 fluorescence intensity (a.u.)
TTTCATTAGTGCTACGATTGCATTTTGTCAATTCAATAATCGGAGTCACCTAGTGCAG | 9070 fluorescence intensity (a.u.)
CGCGCCCTCCTCCGCCGCCGCTCGCCGCCGTTCGTCTCCGCGGAGTCACCTAGTGCAG | 9840 fluorescence intensity (a.u.)
TTTGCAACTTCTGTTTTATACTTCTACTTAGTATCAAAATCGGAGTCACCTAGTGCAG | 8160 fluorescence intensity (a.u.)
GCACGCGCACATGCGACCGCACGCACGGCACCACACACACCGGAGTCACCTAGTGCAG | 8920 fluorescence intensity (a.u.)
CATCGTTGAACTTTATCGTGCCCTTCACACCATTCCGTCGCGGAGTCACCTAGTGCAG | 8130 fluorescence intensity (a.u.)
ATTATATTTGTGTGTATAAGTAACTTTAAGATTTGTGATGCGGAGTCACCTAGTGCAG | 8310 fluorescence intensity (a.u.)
GAAGACTAGTCATCTTGCTATCACGGTCACATTAATTACCCGGAGTCACCTAGTGCAG | 10300 fluorescence intensity (a.u.)
GCTGCCGCCCTGTTCGTGCCATAGCGCAACCCAGCTCCGCCGGAGTCACCTAGTGCAG | 8120 fluorescence intensity (a.u.)
ATCAGTCATTCTGCTTGCTTACCCGTTTTGGTTGACTTGTCGGAGTCACCTAGTGCAG | 12500 fluorescence intensity (a.u.)
TTTTGCATCCATCTGTTTTACACTTACATTCCTATTAAAACGGAGTCACCTAGTGCAG | 9960 fluorescence intensity (a.u.)
CGTGGGCCCCACCCGTGCCAGCTCACCTCATCCCCACCACCGGAGTCACCTAGTGCAG | 8940 fluorescence intensity (a.u.)
GTTCTTTCGGCCGCCTCGCCTTCCACCGCGTCCGCGAATTCGGAGTCACCTAGTGCAG | 12700 fluorescence intensity (a.u.)
TCTTTATGACTCCTTTGTTGCACCTTATAGTTTAGTGTGTCGGAGTCACCTAGTGCAG | 11300 fluorescence intensity (a.u.)
ACATTTAAAACCAACTTTCACCCACCCACCCACTGCATTCCGGAGTCACCTAGTGCAG | 9140 fluorescence intensity (a.u.)
AGTCAGTGGGTAAATTCTTTAAAAACTCCTATGTTTTTTCCGGAGTCACCTAGTGCAG | 9550 fluorescence intensity (a.u.)
TCTCCGTTTCAAAATAGGTCCATTTTTCACCCAAACTACTCGGAGTCACCTAGTGCAG | 8660 fluorescence intensity (a.u.)
CATTTGTTTTATTTTAGCATTTGTCACTTACATGTGGGACCGGAGTCACCTAGTGCAG | 8400 fluorescence intensity (a.u.)

Reformatted: results already given

| Sequence | binding signal |
| --- | --- |
| GTCGCGGTTGCCCCTCATCGTTGCTCACGGCTGCTTCGCACGGAGTCACCTAGTGCAG | 8440 fluorescence intensity (a.u.) |
| TATTTTTATTCTTATTCCCATTGCGCTTCTTCATTTTCTTCGGAGTCACCTAGTGCAG | 11600 fluorescence intensity (a.u.) |
| CTCTATCCATGGAATCTCATCCATCATCCATACATAACGACGGAGTCACCTAGTGCAG | 8210 fluorescence intensity (a.u.) |

From PMC7819943, “Rice protein-binding microarrays: a tool to detect cis-acting elements near promoter regions in rice”
